Reference: patent EP4458977A1 (Max-Planck-Gesellschaft zur Förderung der Wissenschaften …, priority 2023, dated 2024)
Where two headings read alike, the source gives them in different places. Some compounds share one wording; it may come from a single statement. Where a SMILES comes first, the peptide text is derived from it. Where no end group is shown, it is not given here. [ ]: non-standard residue; d: D form. The star is where a group is joined. X1 = CC/C=C\C/C=C\C/C=C\C/C=C\C/C=C\CCCC(=O)*; Fmoc = O=C(OCC1c2ccccc2-c2ccccc21)*; Palmitoyl = CCCCCCCCCCCCCCCC(=O)*; Lauroyl = CCCCCCCCCCCC(=O)*; Nonanoyl = CCCCCCCCC(=O)*

Tested on: HeLa cells
Assay: Confocal laser scanning microscopy and degradation study with PA library and HeLa cells
Format: cell-based
Conditions: for Aggregate size after 30 min incubation (d0) / Aggregate size after 3 d incubation (d3): aggregates > 10 µm^2, HeLa cell culture
Protocol: In general, the procedure for determine whether a PA is degraded or not, is conducted by confocal laser scanning microscopy of Proteostat stained PAs which are added to Hela cells (2 µg peptide added to 20.000 cells). Microscopy is conducted at day 0 (d0, after 30 min of incubation) and at day 3 (d3, after 72 h of incubation). The number of aggregates >10 µm^2 is counted via 3D object counter in imaged in an area of 1008 µm × 1008 µm.
A PA is considered to be degradable if the number and the size of aggregates are reduced after 3 days. The efficiency is determined by the percentual degradation (aggregate number at d3 / aggregate number at d0). For the number of aggregation three technical replicates were evaluated for each sample. A large deviation represents a nonhomogeneous spatial distribution of aggregates.
Confocal laser scanning microscopy and degradation study with PA library and HeLa cells: Confocal laser scanning microscopy studies were performed for the visualization of the cell-PA interaction. HeLa cells were seeded one day prior to conducting the assay (20,000/well) in an 8-well IBIDI slide. […] The nucleus of the HeLa cells was stained with Hoechst 33342 (NucBlue™, Thermo Fisher Scientific). The peptide solution mixture was transferred to the HeLa cells and incubated for 30 min at 37°C before washing three times with PBS. […] For the evaluation of aggregate degradation, the samples were further incubated at 37°C for 3 d and analyzed without any additional washing step. […] The number of aggregates were determined by counting aggregates larger than the threshold 10 µm^2 in an area of 1008 × 1008 µm and repeated in three technical triplicates.

Row | Compound | formation of µm-sized PA clusters (Proteostat stained, with HeLa cells) | Aggregate size after 30 min incubation (d0) | Aggregate size after 3 d incubation (d3) | average size of aggregates | formation of µm-sized PA clusters (Proteostat stained, with HeLa cells) (listed as C16-disulfide-CVVVAAAKKK-NH2) | formation of µm-sized PA clusters (Proteostat stained, with HeLa cells) (listed as C16-disulfide-CVWAAAKKK)
1 | C16-thioester-CVVVAAAKKK-NH2 (C16-thioester N-terminus; C-terminal amide; source 1..10: note = Peptide Amphiphile Pat3; MOD_RES 10: note = lysine amide; note = AMIDATION; LIPID 1: note = …; note = S-palmitoyl-cysteine) | formation of µm-sized PA clusters | 22 µm^2 | 10 µm^2 | – | – | –
2 | CCCCCCCCCCCCCCCC(=O)N[C@@H](C(=O)N[C@@H](C(=O)N[C@@H](C(=O)N[C@H](C)C(=O)N[C@H](C)C(=O)N[C@H](C)C(=O)N[C@H](CCCCN)C(=O)N[C@H](CCCCN)C(=O)N[C@H](CCCCN)C(N)=O)C(C)C)C(C)C)C(C)C [Pat14, C16-vvvaaakkk-NH2] (Palmitoyl-[dV][dV][dV][dA][dA][dA][dK][dK][dK]-NH2) | formation of µm-sized PA clusters | 71 µm^2 | 30 µm^2 | – | – | –
3 | CC/C=C\C/C=C\C/C=C\C/C=C\C/C=C\CCCC(=O)N[C@H](C(=O)N[C@H](C(=O)N[C@H](C(=O)N[C@@H](C)C(=O)N[C@@H](C)C(=O)N[C@@H](C)C(=O)N[C@@H](CCCCN)C(=O)N[C@@H](CCCCN)C(=O)N[C@@H](CCCCN)C(N)=O)C(C)C)C(C)C)C(C)C [Pat10] (X1-VVVAAAKKK-NH2) | formation of µm-sized PA clusters | 21 µm^2 | 17 µm^2 | 6 µm^2 | – | –
4 | NFYLQVNKINK-NH2 [Pat46] | – | 61 µm^2 | 44 µm^2 | – | – | –
5 | CCCCCCCCCCCCCCCC(=O)N[C@@H](CC(N)=O)C(=O)N[C@@H](Cc1ccccc1)C(=O)N[C@@H](Cc1ccc(O)cc1)C(=O)N[C@@H](CC(C)C)C(=O)N[C@@H](CCC(N)=O)C(=O)N[C@H](C(=O)N[C@@H](CC(N)=O)C(=O)N[C@@H](CCCCN)C(=O)N[C@H](C(=O)N[C@@H](CC(N)=O)C(=O)N[C@@H](CCCCN)C(N)=O)[C@@H](C)CC)C(C)C [Pat27] (Palmitoyl-NFYLQVNKINK-NH2) | – | 153 µm^2 | 87 µm^2 | – | – | –
6 | CCCCCCCCCCCCCCCC(=O)N[C@@H](CC(C)C)C(=O)N[C@@H](CC(N)=O)C(=O)NCC(=O)NCC(=O)N[C@H](C(=O)N[C@@H](CCCCN)C(=O)N[C@@H](CCCCN)C(N)=O)C(C)C [Pat19, C16-LNGGVKK-NH2] (Palmitoyl-LNGGVKK-NH2) | formation of µm-sized PA clusters | 76 µm^2 | 40 µm^2 | – | – | –
7 | CCCCCCCCCCCCCCCC(=O)N[C@@H](CCCCN)C(=O)N[C@@H](Cc1ccc(O)cc1)C(=O)N[C@H](C(=O)N[C@@H](Cc1c[nH]cn1)C(=O)N[C@@H](CCC(N)=O)C(=O)N[C@@H](CC(N)=O)C(=O)N[C@@H](Cc1ccc(O)cc1)C(=O)N[C@H](C(=O)N[C@@H](CCCCN)C(=O)N[C@@H](C)C(=O)N[C@@H](CC(C)C)C(=O)N[C@@H](C)C(=O)NCC(=O)N[C@@H](CCCCN)C(=O)N[C@@H](CC(C)C)C(=O)N[C@H](C(N)=O)C(C)C)[C@@H](C)O)[C@@H](C)CC [Pat26] (Palmitoyl-KYIHQNYTKALAGKLV-NH2) | – | 76 µm^2 | 80 µm^2 | – | – | –
8 | CCCCCCCCCCCCCCCC(=O)N[C@@H](C)C(=O)N[C@@H](CC(C)C)C(=O)N[C@@H](C)C(=O)N[C@@H](C)C(=O)NCC(=O)N[C@@H](CCCCN)C(=O)N[C@@H](CCCCN)C(N)=O [Pat20, C16-ALAAGKK-NH2] (Palmitoyl-ALAAGKK-NH2) | formation of µm-sized PA clusters | 38 µm^2 | 45 µm^2 | – | – | –
9 | CCCCCCCCC(=O)N[C@H](C(=O)N[C@H](C(=O)N[C@H](C(=O)N[C@@H](C)C(=O)N[C@@H](C)C(=O)N[C@@H](C)C(=O)N[C@@H](CCCCN)C(=O)N[C@@H](CCCCN)C(=O)N[C@@H](CCCCN)C(N)=O)C(C)C)C(C)C)C(C)C [Pat8] (Nonanoyl-VVVAAAKKK-NH2) | formation of µm-sized PA clusters | 32 µm^2 | 50 µm^2 | – | – | –
10 | Nap-VVVAAAKKK-NH2 (N-terminal naphthyl; C-terminal amide; source 1..9: note = Peptide Amphiphile Pat13; MOD_RES 9: note = AMIDATION; note = lysine amide; MOD_RES 1: note = 2-naphthylmethyl; note = N-2-naphthylmethyl valine) | no formation of µm-sized PA clusters | – | – | – | – | –
11 | CCCCCCCCCCCCCCCC(=O)N[C@@H](CCCCN)C(=O)N[C@H](C(=O)N[C@H](C(=O)N[C@@H](CO)C(=O)N[C@@H](Cc1ccccc1)C(=O)N[C@@H](CCCCN)C(N)=O)[C@@H](C)CC)[C@@H](C)CC [Pat32, C16-KIISFK-NH2] (Palmitoyl-KIISFK-NH2) | – | 56 µm^2 | 49 µm^2 | – | – | –
12 | CC(C)[C@H](NC(=O)OCC1c2ccccc2-c2ccccc21)C(=O)N[C@H](C(=O)N[C@H](C(=O)N[C@@H](C)C(=O)N[C@@H](C)C(=O)N[C@@H](C)C(=O)N[C@@H](CCCCN)C(=O)N[C@@H](CCCCN)C(=O)N[C@@H](CCCCN)C(N)=O)C(C)C)C(C)C [Pat12] (Fmoc-VVVAAAKKK-NH2) | formation of µm-sized PA clusters | 111 µm^2 | 65 µm^2 | – | – | –
13 | CCCCCCCCCCCCCCCC(=O)N[C@H](C(=O)N[C@H](C(=O)N[C@@H](C)C(=O)N[C@@H](C)C(=O)N[C@@H](Cc1c[nH]cn1)C(=O)N[C@@H](Cc1c[nH]cn1)C(=O)N[C@@H](Cc1c[nH]cn1)C(N)=O)C(C)C)C(C)C [Pat24, C16-VVAAHHH-NH2] (Palmitoyl-VVAAHHH-NH2) | – | 169 µm^2 | 283 µm^2 | – | – | –
14 | C16-disulfide-CVVVAAAKKK-NH2 (C16-disulfide N-terminus; C-terminal amide; source 1..10: note = Peptide Amphiphile Pat2; MOD_RES 10: note = lysine amide; note = AMIDATION; MOD_RES 1: note = HEX…ULFID; note = hexadecanyl-S-S-cysteine) | no formation of µm-sized PA clusters | – | – | – | not forming large (>10 µm^2) aggregates | not forming large (>10 µm^2) aggregates
15 | CCCCCCCCCCCCCCCC(=O)N[C@@H](CC(C)C)C(=O)N[C@@H](CC(C)C)C(=O)N[C@@H](CC(C)C)C(=O)N[C@@H](CCCCN)C(=O)N[C@@H](CCCCN)C(N)=O [Pat23, C16-LLLKK-NH2] (Palmitoyl-LLLKK-NH2) | formation of µm-sized PA clusters | 71 µm^2 | 60 µm^2 | – | – | –
16 | CCCCCCCCCCCC(=O)N[C@H](C(=O)N[C@H](C(=O)N[C@H](C(=O)N[C@@H](C)C(=O)N[C@@H](C)C(=O)N[C@@H](C)C(=O)N[C@@H](CCCCN)C(=O)N[C@@H](CCCCN)C(=O)N[C@@H](CCCCN)C(N)=O)C(C)C)C(C)C)C(C)C [Pat7] (Lauroyl-VVVAAAKKK-NH2) | formation of µm-sized PA clusters | 45 µm^2 | 63 µm^2 | – | – | –
17 | CCCCCCCCCCCCCCCC(=O)N[C@@H](C)C(=O)NCC(=O)NCC(=O)N[C@@H](CCCNC(=N)N)C(=O)N[C@H](C(=O)N[C@@H](CCCCN)C(N)=O)C(C)C [Pat18, C16-AGGRVK-NH2] (Palmitoyl-AGGRVK-NH2) | no formation of µm-sized PA clusters | – | – | – | – | –
18 | C16-ester-SVVVAAAKKK-NH2 (C16-ester N-terminus; C-terminal amide; source 1..10: note = Peptide Amphiphile Pat1; MOD_RES 10: note = lysine amide; note = AMIDATION; LIPID 1: note = O-palmitoyl serine; note = …) | formation of µm-sized PA clusters | – | – | – | – | –
19 | CCCCCCCCCCCCCCCC(=O)N[C@@H](C)C(=O)N[C@@H](CCCCN)C(=O)N[C@@H](C)C(=O)N[C@H](C(=O)NCC(=O)N[C@@H](CCCCN)C(N)=O)C(C)C [Pat31, C16-AKAVGK-NH2] (Palmitoyl-AKAVGK-NH2) | formation of µm-sized PA clusters | 104 µm^2 | 38 µm^2 | – | – | –
20 | CCCCCCCCCCCCCCCC(=O)N[C@@H](Cc1c[nH]c2ccccc12)C(=O)N[C@@H](CCC(=O)O)C(=O)N[C@@H](C)C(=O)N[C@@H](CC(C)C)C(=O)N[C@@H](CCCCN)C(=O)N[C@@H](CCCCN)C(N)=O [Pat17, C16-WEALKK-NH2] (Palmitoyl-WEALKK-NH2) | no formation of µm-sized PA clusters | – | – | – | – | –
